Data published in paper PMC8667778.
Results are given in words; binding and its absence hold for the method and conditions named. In cells and extracts the contact can be indirect. Some results given as binding are weak or reduced against the parent protein; the word gives no strength.

Amino acid sequences for entries named in this document (tags omitted). Residues count along the entry.
UniProt P20029, residues 20-655: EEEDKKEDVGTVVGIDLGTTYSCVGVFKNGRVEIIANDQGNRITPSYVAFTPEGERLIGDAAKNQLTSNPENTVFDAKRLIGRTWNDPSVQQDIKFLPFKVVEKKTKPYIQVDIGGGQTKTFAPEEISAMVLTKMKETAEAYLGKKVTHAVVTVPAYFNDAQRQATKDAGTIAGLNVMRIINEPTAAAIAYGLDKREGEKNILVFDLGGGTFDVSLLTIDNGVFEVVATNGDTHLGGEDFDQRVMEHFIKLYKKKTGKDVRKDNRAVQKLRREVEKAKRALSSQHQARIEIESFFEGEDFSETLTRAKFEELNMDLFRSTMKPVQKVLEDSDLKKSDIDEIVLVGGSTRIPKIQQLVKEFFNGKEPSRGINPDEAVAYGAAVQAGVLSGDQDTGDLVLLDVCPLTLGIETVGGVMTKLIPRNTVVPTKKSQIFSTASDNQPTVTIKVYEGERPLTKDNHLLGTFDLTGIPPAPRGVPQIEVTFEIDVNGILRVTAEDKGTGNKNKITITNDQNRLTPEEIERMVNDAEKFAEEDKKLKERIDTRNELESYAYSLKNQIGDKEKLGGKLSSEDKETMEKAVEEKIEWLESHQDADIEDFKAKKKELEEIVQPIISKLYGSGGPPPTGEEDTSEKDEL
UniProt Q91VN0, residues 31-1614: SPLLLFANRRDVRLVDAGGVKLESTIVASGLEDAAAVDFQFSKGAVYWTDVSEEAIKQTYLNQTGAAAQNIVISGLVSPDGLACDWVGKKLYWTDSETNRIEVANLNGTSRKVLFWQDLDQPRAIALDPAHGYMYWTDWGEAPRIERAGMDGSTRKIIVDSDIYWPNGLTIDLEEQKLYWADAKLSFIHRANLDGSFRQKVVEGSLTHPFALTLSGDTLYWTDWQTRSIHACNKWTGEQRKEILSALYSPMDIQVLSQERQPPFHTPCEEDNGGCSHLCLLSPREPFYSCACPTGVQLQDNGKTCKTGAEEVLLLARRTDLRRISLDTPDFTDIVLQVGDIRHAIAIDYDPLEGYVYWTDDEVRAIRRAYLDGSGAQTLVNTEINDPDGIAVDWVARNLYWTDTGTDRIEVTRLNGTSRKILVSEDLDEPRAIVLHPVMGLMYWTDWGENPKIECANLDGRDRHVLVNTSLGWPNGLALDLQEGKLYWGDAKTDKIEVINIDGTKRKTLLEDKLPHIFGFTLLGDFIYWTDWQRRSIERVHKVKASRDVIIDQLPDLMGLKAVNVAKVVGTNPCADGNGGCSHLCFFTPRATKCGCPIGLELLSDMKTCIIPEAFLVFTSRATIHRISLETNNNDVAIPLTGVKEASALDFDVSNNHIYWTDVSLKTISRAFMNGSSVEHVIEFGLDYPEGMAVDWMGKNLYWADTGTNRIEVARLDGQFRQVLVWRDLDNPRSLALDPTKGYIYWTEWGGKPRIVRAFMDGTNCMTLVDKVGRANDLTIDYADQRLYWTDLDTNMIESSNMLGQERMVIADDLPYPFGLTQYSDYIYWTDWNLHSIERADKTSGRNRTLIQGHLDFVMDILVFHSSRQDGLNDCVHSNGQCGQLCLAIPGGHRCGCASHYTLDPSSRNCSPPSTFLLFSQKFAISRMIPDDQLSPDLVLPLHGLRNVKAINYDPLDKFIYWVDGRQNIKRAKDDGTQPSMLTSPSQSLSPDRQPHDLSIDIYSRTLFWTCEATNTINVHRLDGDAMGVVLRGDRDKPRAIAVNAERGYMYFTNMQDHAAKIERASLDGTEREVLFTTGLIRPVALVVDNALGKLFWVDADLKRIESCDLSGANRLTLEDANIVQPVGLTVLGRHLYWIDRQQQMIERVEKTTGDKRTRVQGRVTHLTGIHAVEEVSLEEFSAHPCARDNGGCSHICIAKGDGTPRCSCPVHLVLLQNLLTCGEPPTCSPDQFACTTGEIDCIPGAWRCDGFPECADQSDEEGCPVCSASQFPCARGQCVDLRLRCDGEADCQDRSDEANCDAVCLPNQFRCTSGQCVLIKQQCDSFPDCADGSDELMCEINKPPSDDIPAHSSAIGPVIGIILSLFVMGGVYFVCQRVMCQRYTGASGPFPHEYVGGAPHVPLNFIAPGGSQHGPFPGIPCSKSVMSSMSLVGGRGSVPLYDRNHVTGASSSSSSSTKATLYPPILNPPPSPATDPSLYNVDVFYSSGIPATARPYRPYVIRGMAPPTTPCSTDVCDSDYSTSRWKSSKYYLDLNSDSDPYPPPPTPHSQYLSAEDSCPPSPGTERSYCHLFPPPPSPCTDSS

Target: GRP78 (mouse (endogenous in 4T1)) (UniProt P20029)
Assay: co-IP; Pierce Co-Immunoprecipitation Kit; GRP78 antibody immobilised on resin, incubated with 4T1 cell lysates, LRP5 detected by immunoblotting; quenched antibody coupling resin as negative control; cells treated with cortisol and with SNS (200 μg/ml) for 24 h

binding: binds
Substance: LRP5 (from UniProt Q91VN0 31-1614) (receptor)
